Source: patent US7186830B2, “Tricyclic 2-pyrimidone compounds useful as HIV reverse transcriptase inhibitors” (Bristol-Myers Squibb Company, priority 2002, dated 2007)
In brackets after ≈: the same amount, converted by molar mass.

System: HIV-1 (RF)
Assay: HIV RNA assay: microplate based compound evaluation in HIV-1 infected MT-2 cells
Assay type: cell-based
Settings: Human immunodeficiency virus 1, MT2, 72 h; HIV-1 (RF) infected MT-2 cells, 3 days of culture; value used to standardize the virus inoculum; read-out: IC90 (concentration of compound required to reduce the HIV RNA level by 90%)
Description: MT-2 and MT-4 cells were maintained in RPMI 1640 supplemented with 5% fetal calf serum (FCS) for MT-2 cells or 10% FCS for MT-4 cells, 2 mM L-glutamine and 50 μg/mL gentamycin, all from Gibco. HIV-1 RF was propagated in MT-4 cells in the same medium. Virus stocks were prepared approximately 10 days after acute infection of MT-4 cells and stored as aliquots at −70° C. Infectious titers of HIV-1(RF) stocks were 1–3×10^7 PFU (plaque forming units)/mL as measured by plaque assay on MT-2 cells (see below). Each aliquot of virus stock used for infection was thawed only once.
For evaluation of antiviral efficacy, cells to be infected were subcultured one day prior to infection. […]
Cell lysates or purified RNA in 3 M or 5 M GED were mixed with 5 M GED and capture probe to a final guanidinium isothiocyanate concentration of 3 M and a final biotin oligonucleotide concentration of 30 nM. […] Immobilized alkaline phosphatase activity was detected by addition of 100 μL of 0.2 mM 4-methylumbelliferyl phosphate (MUBP, JBL Scientific) in buffer (2.5 M diethanolamine pH 8.9 (JBL Scientific), 10 mM MgCl2, 5 mM zinc acetate dihydrate and 5 mM N-hydroxyethyl-ethylene-diamine-triacetic acid). […] Fluorescence at […] was measured using a microplate fluorometer (Dynateck) exciting at 365 nM. […]

IC90: 0.2 µg/mL (≈ 0.947 µM)
SMILES: Nc1ccn([C@H]2CC[C@@H](CO)O2)c(=O)n1 [ddC, 2′,3′-dideoxycytidine]
